Assay results from article PMC8466577.

Sequences of proteins named here, by UniProt entry; tags and fusion partners are left off.
UniProt P09429: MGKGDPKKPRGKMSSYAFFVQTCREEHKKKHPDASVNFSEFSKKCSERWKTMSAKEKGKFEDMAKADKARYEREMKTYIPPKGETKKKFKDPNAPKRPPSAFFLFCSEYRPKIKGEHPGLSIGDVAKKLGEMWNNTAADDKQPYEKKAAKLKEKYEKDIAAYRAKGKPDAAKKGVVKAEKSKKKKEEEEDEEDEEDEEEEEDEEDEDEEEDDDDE
UniProt Q09028: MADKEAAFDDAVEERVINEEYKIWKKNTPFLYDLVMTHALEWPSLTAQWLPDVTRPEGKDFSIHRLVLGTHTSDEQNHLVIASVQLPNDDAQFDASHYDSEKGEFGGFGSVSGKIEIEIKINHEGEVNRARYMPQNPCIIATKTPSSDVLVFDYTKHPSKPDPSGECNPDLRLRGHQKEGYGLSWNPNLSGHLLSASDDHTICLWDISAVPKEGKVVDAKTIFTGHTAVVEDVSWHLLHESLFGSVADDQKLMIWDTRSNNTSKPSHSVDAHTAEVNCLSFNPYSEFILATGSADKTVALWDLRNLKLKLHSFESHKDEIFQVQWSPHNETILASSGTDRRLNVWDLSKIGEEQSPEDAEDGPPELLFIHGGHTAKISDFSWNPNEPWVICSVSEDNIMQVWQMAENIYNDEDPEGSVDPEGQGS
UniProt Q14137: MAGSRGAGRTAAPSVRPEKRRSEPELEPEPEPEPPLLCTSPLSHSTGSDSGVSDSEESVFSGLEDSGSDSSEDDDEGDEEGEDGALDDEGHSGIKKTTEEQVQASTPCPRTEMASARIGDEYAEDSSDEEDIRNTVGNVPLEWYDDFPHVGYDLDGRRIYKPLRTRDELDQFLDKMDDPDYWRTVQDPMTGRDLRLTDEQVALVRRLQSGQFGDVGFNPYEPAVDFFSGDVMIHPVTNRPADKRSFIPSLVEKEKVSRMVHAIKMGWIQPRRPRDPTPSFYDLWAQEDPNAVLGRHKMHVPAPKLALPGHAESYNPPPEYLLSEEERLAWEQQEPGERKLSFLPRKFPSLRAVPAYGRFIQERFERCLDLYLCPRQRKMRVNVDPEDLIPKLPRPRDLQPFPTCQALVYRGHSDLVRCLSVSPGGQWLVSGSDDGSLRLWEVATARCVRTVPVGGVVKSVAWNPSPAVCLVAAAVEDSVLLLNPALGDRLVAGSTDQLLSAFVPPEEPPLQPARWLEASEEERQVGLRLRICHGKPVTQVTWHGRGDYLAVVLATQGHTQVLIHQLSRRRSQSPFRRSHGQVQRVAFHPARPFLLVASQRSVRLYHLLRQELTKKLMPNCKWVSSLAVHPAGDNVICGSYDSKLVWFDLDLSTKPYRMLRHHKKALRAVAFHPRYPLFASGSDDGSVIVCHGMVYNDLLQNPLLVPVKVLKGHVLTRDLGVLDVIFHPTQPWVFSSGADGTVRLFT
UniProt Q13547: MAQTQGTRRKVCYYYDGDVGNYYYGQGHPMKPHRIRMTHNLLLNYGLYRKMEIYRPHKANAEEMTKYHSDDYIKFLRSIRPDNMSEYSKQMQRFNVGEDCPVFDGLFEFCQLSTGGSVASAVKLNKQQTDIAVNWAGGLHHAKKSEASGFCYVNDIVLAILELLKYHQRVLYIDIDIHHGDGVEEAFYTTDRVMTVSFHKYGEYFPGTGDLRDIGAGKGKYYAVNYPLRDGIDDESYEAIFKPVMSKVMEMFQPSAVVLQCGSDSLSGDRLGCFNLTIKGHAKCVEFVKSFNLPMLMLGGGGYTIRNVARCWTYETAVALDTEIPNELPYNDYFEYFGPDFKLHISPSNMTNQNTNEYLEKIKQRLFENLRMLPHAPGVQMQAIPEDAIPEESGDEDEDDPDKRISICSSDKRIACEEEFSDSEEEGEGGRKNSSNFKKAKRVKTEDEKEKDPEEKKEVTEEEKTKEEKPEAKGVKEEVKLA
UniProt Q14839: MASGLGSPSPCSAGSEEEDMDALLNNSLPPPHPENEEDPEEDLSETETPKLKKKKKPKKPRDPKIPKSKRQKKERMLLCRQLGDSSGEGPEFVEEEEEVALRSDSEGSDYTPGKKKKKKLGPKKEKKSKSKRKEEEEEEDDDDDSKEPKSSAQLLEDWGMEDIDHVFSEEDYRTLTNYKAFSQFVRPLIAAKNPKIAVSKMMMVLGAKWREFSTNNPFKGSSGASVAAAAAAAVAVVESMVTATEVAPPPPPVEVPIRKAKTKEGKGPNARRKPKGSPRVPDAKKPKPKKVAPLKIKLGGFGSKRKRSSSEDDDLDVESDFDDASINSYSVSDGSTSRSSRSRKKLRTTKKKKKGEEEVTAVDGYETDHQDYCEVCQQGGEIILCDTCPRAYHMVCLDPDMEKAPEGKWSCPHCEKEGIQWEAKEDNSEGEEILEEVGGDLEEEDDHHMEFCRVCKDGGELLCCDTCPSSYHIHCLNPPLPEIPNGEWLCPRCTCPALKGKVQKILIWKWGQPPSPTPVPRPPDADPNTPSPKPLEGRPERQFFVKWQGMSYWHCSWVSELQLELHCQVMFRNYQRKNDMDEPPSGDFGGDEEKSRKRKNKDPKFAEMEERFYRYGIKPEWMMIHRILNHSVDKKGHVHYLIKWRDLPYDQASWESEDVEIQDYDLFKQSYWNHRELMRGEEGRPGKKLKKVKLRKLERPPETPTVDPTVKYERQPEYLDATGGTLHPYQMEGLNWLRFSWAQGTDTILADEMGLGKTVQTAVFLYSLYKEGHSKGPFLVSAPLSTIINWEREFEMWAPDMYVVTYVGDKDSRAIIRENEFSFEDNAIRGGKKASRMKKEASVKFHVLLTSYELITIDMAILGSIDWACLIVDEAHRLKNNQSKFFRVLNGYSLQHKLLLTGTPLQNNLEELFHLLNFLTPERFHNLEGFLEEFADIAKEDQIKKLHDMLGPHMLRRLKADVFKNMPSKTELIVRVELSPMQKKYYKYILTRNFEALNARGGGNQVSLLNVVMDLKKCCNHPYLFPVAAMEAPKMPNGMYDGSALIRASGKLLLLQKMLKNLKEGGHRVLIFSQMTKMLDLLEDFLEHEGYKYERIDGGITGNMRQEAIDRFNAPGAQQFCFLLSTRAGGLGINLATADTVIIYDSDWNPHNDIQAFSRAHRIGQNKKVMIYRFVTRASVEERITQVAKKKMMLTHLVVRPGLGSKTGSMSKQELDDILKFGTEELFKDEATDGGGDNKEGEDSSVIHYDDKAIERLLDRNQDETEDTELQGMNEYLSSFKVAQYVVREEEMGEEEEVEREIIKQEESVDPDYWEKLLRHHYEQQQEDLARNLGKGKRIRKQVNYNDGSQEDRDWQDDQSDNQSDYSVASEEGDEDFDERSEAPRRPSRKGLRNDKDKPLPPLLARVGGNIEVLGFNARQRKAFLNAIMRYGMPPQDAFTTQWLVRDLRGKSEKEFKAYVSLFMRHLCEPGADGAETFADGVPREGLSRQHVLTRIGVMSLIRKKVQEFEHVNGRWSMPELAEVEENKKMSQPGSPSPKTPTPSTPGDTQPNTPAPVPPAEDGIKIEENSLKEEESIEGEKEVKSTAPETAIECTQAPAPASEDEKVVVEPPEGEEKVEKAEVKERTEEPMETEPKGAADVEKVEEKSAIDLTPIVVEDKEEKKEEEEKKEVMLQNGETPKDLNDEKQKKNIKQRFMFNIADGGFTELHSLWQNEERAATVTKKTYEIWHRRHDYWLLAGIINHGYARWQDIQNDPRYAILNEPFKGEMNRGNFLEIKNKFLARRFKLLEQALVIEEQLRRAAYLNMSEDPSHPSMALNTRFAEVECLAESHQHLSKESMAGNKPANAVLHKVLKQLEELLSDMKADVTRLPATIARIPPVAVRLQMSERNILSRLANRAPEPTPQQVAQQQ
UniProt Q13601: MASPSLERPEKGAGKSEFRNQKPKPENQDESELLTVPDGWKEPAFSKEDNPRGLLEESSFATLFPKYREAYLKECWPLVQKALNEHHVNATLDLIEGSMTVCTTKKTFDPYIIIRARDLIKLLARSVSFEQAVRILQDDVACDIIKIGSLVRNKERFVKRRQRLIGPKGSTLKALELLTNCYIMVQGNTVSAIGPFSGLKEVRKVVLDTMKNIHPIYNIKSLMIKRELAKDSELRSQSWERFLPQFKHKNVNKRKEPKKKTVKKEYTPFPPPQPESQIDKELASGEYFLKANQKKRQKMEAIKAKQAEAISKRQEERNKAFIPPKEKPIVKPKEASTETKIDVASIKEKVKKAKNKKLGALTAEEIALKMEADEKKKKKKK

T1: THOC5 (human (endogenous in SKOV-3 and PC-3)) (UniProt Q13769)
T1 sequence: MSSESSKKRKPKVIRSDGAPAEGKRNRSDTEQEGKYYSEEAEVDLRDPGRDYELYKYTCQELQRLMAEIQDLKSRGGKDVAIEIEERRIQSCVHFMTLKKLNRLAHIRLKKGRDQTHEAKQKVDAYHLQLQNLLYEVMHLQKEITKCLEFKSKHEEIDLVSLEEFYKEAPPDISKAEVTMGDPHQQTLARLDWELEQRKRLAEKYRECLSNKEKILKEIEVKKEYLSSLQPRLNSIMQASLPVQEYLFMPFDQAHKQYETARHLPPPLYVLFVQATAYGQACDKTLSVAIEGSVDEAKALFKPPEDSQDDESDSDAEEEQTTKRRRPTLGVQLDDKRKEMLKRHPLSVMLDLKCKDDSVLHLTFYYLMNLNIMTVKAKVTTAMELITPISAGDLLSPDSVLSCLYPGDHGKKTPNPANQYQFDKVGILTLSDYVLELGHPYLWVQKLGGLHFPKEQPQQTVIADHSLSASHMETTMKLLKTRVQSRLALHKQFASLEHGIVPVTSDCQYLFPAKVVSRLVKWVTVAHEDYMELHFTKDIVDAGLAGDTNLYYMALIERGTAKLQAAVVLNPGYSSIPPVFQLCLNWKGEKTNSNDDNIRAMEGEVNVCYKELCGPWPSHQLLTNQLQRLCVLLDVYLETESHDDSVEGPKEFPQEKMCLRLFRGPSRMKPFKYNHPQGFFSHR


What was measured:
[1] = target: HMGB1 (human (endogenous in SKOV-3 and PC-3)) (UniProt P09429); test: affinity purification with mass spectrometry; anti-HMGB1 (Abcam ab18256) crosslinked to Protein G-Dynal beads; SKOV-3 and PC-3 whole-cell lysates (three IPs each) and nuclear and cytoplasmic fractions (one each), Benzonase-treated; 4 h at 4 °C; washes with 150 mM NaCl, 0.1% NP-40; IgG control; SAINT score cut-off 0.7
[2] = target: T1, THOC5 (human (endogenous in SKOV-3 and PC-3)); test: affinity purification with mass spectrometry; anti-THOC5 (Abcam ab86070) crosslinked to Protein G-Dynal beads; PC-3 lysate, Benzonase-treated; 4 h at 4 °C; IgG control; SAINT score cut-off 0.7
[3] = target: HMGB1 (human (endogenous in SKOV-3 and PC-3)) (UniProt P09429); test: affinity purification with mass spectrometry; anti-HMGB1 (Abcam ab18256) crosslinked to Protein G-Dynal beads; SKOV-3 and PC-3 whole-cell lysates (three IPs each) and nuclear and cytoplasmic fractions (one each), Benzonase-treated; 4 h at 4 °C; washes with 150 mM NaCl, 0.1% NP-40; IgG control; SAINT score cut-off 0.7; remark: listed apart in the source

| Molecule | binding [1] | binding [2] | binding [3] |
| --- | --- | --- | --- |
| RBBP4 (from UniProt Q09028 1-425) | binds | – | – |
| BOP1 (from UniProt Q14137 1-746) | binds | – | – |
| HDAC1 (from UniProt Q13547 1-482) | binds | – | – |
| LYAR (from UniProt Q9NX58 1-379) | binds | – | – |
| CHD4 (from UniProt Q14839 1-1912) | binds | – | – |
| KRR1 (from UniProt Q13601 1-381) | binds | – | – |
| THOC1 (protein, UniProt Q96FV9 1-657) MSPTPPLFSLPEARTRFTKSTREALNNKNIKPLLSTFSQVPGSENEKKCTLDQAFRGILEEEIINHSSCENVLAIISLAIGGVTEGICTASTPFVLLGDVLDCLPLDQCDTIFTFVEKNVATWKSNTFYSAGKNYLLRMCNDLLRRLSKSQNTVFCGRIQLFLARLFPLSEKSGLNLQSQFNLENVTVFNTNEQESTLGQKHTEDREEGMDVEEGEMGDEEAPTTCSIPIDYNLYRKFWSLQDYFRNPVQCYEKISWKTFLKYSEEVLAVFKSYKLDDTQASRKKMEELKTGGEHVYFAKFLTSEKLMDLQLSDSNFRRHILLQYLILFQYLKGQVKFKSSNYVLTDEQSLWIEDTTKSVYQLLSENPPDGERFSKMVEHILNTEENWNSWKNEGCPSFVKERTSDTKPTRIIRKRTAPEDFLGKGPTKKILMGNEELTRLWNLCPDNMEACKSETREHMPTLEEFFEEAIEQADPENMVENEYKAVNNSNYGWRALRLLARRSPHFFQPTNQQFKSLPEYLENMVIKLAKELPPPSEEIKTGEDEDEEDNDALLKENESPDVRRDKPVTGEQIEVFANKLGEQWKILAPYLEMKDSEIRQIECDSEDMKMRAKQLLVAWQDQEGVHATPENLINALNKSGLSDLAESLTNDNETNS | – | binds | binds |
| THOC6 (protein, UniProt Q86W42 1-341) MERAVPLAVPLGQTEVFQALQRLHMTIFSQSVSPCGKFLAAGNNYGQIAIFSLSSALSSEAKEESKKPVVTFQAHDGPVYSMVSTDRHLLSAGDGEVKAWLWAEMLKKGCKELWRRQPPYRTSLEVPEINALLLVPKENSLILAGGDCQLHTMDLETGTFTRVLRGHTDYIHCLALRERSPEVLSGGEDGAVRLWDLRTAKEVQTIEVYKHEECSRPHNGRWIGCLATDSDWMVCGGGPALTLWHLRSSTPTTIFPIRAPQKHVTFYQDLILSAGQGRCVNQWQLSGELKAQVPGSSPGLLSLSLNQQPAAPECKVLTAAGNSCRVDVFTNLGYRAFSLSF | – | binds | binds |
| SEPT9 (protein, UniProt Q9UHD8 1-586) MKKSYSGGTRTSSGRLRRLGDSSGPALKRSFEVEEVETPNSTPPRRVQTPLLRATVASSTQKFQDLGVKNSEPSARHVDSLSQRSPKASLRRVELSGPKAAEPVSRRTELSIDISSKQVENAGAIGPSRFGLKRAEVLGHKTPEPAPRRTEITIVKPQESAHRRMEPPASKVPEVPTAPATDAAPKRVEIQMPKPAEAPTAPSPAQTLENSEPAPVSQLQSRLEPKPQPPVAEATPRSQEATEAAPSCVGDMADTPRDAGLKQAPASRNEKAPVDFGYVGIDSILEQMRRKAMKQGFEFNIMVVGQSGLGKSTLINTLFKSKISRKSVQPTSEERIPKTIEIKSITHDIEEKGVRMKLTVIDTPGFGDHINNENCWQPIMKFINDQYEKYLQEEVNINRKKRIPDTRVHCCLYFIPATGHSLRPLDIEFMKRLSKVVNIVPVIAKADTLTLEERVHFKQRITADLLSNGIDVYPQKEFDEDSEDRLVNEKFREMIPFAVVGSDHEYQVNGKRILGRKTKWGTIEVENTTHCEFAYLRDLLIRTHMQNIKDITSSIHFEAYRVKRLNEGSSAMANGMEEKEPEAPEM | – | binds | binds |

Like-named read-outs stand apart in the source and are kept apart here. These are yes or no findings as the source states them, for the method shown. Binding seen in cells or lysates may run through a third protein. These calls come from enrichment with a bait or labelling near it, and not all partners need be listed.
